The source gives many values for each of these; only a part stands here.
Tested on: subjects with moderately to severely active RA who have an inadequate response to methotrexate (MTX)
Test: Study 1 (add-on to MTX) - Creatinine levels
Type: in vivo, human
Procedure: Double-blind, placebo-controlled add on study in subjects with moderately to severely active RA who have an inadequate response to methotrexate (MTX) (oral or parenteral).
595 subjects randomized to one of 6 dose regimens of Compound 1 (dosed as [Compound 1:HCl:3H2O]) (3 dose levels administered either once or twice daily) or placebo on top of each subject's stable dose of MTX.
Compound 1 (dosed as [Compound 1:HCl:3H2O]) is dosed for twelve weeks once daily (q.d.) (50 mg, 100 mg or 200 mg) or twice daily (b.i.d.) (25 mg, 50 mg or 100 mg); or placebo.
At Week 12, the subjects on placebo who have not achieved 20% improvement in swollen joint count (SJC66) and tender joint count (TJC68) are re-randomized automatically to receive Compound 1 (dosed as a [Compound 1:HCl:3H2O]) either at 100 mg q.d. or 50 mg b.i.d. doses in a blinded fashion; subjects on 50 mg q.d. who have not achieved 20% improvement in SJC66 and TJC68 will be assigned to 100 mg q.d. and subjects on 25 mg b.i.d. that have not achieved a 20% improvement in SJC66 and TJC68 will be assigned to 50 mg b.i.d. Subjects who switch treatment at week 12 are handled as if they discontinued at week 12 for the purpose of statistical analysis, whereas subjects in the other groups will maintain their randomized treatment until Week 24.
Creatinine levels determination is available at Quest Diagnostics, Clinical Trials, Quest House, 125-135 Staines Road, Hounslow, Middlesex, TW3 3JB, United Kingdom under Catalogue n# 82565. For Study 3, the data are obtained at BARC Europe, 3B,Industrie Park, Zwijnaarde, B-9052 Ghent, Belgium.
The Enzymatic method is based on the determination of sarcosine after conversion of creatinine with the aid of creatininase, creatinase, and sarcosine oxidase. The liberated hydrogen peroxide reacts with 4-aminophenazone and HTIB to form a quinone imine chromogen. The reaction is catalyzed by peroxidase. The color intensity is directly proportional to concentration of creatinine present and can be measured photometrically.

[1] = continued 25 mg b.i.d. (N = 69), week 0
[2] = continued 25 mg b.i.d. (N = 69), week 1
[3] = continued 25 mg b.i.d. (N = 69), week 2
[4] = continued 25 mg b.i.d. (N = 69), week 4
[5] = continued 25 mg b.i.d. (N = 69), week 8
[6] = continued 25 mg b.i.d. (N = 69), week 12
[7] = continued 25 mg b.i.d. (N = 69), week 16
[8] = continued 25 mg b.i.d. (N = 69), week 20
[9] = continued 25 mg b.i.d. (N = 69), week 24
[10] = continued 50 mg b.i.d. (N = 85), week 0
[11] = continued 50 mg b.i.d. (N = 85), week 1
[12] = continued 50 mg b.i.d. (N = 85), week 2
[13] = continued 50 mg b.i.d. (N = 85), week 4
[14] = continued 50 mg b.i.d. (N = 85), week 8
[15] = continued 50 mg b.i.d. (N = 85), week 12
[16] = continued 50 mg b.i.d. (N = 85), week 16
[17] = continued 50 mg b.i.d. (N = 85), week 20
[18] = continued 50 mg b.i.d. (N = 85), week 24
[19] = continued 50 mg q.d. (N = 63), week 4
[20] = continued 50 mg q.d. (N = 63), week 8
[21] = continued 50 mg q.d. (N = 63), week 12
[22] = continued 50 mg q.d. (N = 63), week 16
[23] = continued 50 mg q.d. (N = 63), week 20
[24] = continued 100 mg b.i.d. (N = 84), week 0
[25] = continued 100 mg b.i.d. (N = 84), week 1
[26] = continued 100 mg b.i.d. (N = 84), week 2
[27] = continued 100 mg b.i.d. (N = 84), week 4
[28] = continued 100 mg b.i.d. (N = 84), week 8
[29] = continued 100 mg b.i.d. (N = 84), week 12
[30] = continued 100 mg b.i.d. (N = 84), week 16
[31] = continued 100 mg b.i.d. (N = 84), week 20
[32] = continued 100 mg b.i.d. (N = 84), week 24
[33] = continued 100 mg q.d. (N = 85), week 0
[34] = continued 100 mg q.d. (N = 85), week 1
[35] = continued 100 mg q.d. (N = 85), week 2

## O=C(Nc1nc2cccc(-c3ccc(CN4CCS(=O)(=O)CC4)cc3)n2n1)C1CC1 [Compound 1, cyclopropanecarboxylic acid {5-[4-(1,1-dioxo-thiomorpholin-4-ylmethyl)-phenyl]-[1,2,4]triazolo[1,5-a]pyridin-2-yl}-amide]
[1]
  Creatinine Mean CFB: 0.0 µmol/L
  Creatinine Mean percentage CFB: 0.0%
[2]
  Creatinine Mean CFB: 1.2 µmol/L
  Creatinine Mean percentage CFB: 2.5%
[3]
  Creatinine Mean CFB: 1.3 µmol/L
  Creatinine Mean percentage CFB: 2.9%
[4]
  Creatinine Mean CFB: 0.7 µmol/L
  Creatinine Mean percentage CFB: 2.1%
[5]
  Creatinine Mean CFB: 1.5 µmol/L
  Creatinine Mean percentage CFB: 3.3%
[6]
  Creatinine Mean CFB: 1.3 µmol/L
  Creatinine Mean percentage CFB: 3.6%
[7]
  Creatinine Mean CFB: 1.8 µmol/L
  Creatinine Mean percentage CFB: 4.3%
[8]
  Creatinine Mean CFB: 1.7 µmol/L
  Creatinine Mean percentage CFB: 4.3%
[9]
  Creatinine Mean CFB: 0.5 µmol/L
  Creatinine Mean percentage CFB: 2.0%
[10]
  Creatinine Mean CFB: 0.0 µmol/L
  Creatinine Mean percentage CFB: 0.0%
[11]
  Creatinine Mean CFB: 2.9 µmol/L
  Creatinine Mean percentage CFB: 5.5%
[12]
  Creatinine Mean CFB: 3.6 µmol/L
  Creatinine Mean percentage CFB: 6.0%
[13]
  Creatinine Mean CFB: 2.9 µmol/L
  Creatinine Mean percentage CFB: 5.4%
[14]
  Creatinine Mean CFB: 3.5 µmol/L
  Creatinine Mean percentage CFB: 6.4%
[15]
  Creatinine Mean CFB: 3.8 µmol/L
  Creatinine Mean percentage CFB: 6.6%
[16]
  Creatinine Mean CFB: 4.7 µmol/L
  Creatinine Mean percentage CFB: 8.2%
[17]
  Creatinine Mean CFB: 5.7 µmol/L
  Creatinine Mean percentage CFB: 9.6%
[18]
  Creatinine Mean CFB: 2.8 µmol/L
  Creatinine Mean percentage CFB: 5.5%
[19]
  Creatinine Mean CFB: 1.1 µmol/L
  Creatinine Mean percentage CFB: 2.8%
[20]
  Creatinine Mean CFB: 2.0 µmol/L
  Creatinine Mean percentage CFB: 4.4%
[21]
  Creatinine Mean CFB: 1.9 µmol/L
  Creatinine Mean percentage CFB: 3.7%
[22]
  Creatinine Mean CFB: 2.6 µmol/L
  Creatinine Mean percentage CFB: 5.1%
[23]
  Creatinine Mean CFB: 2.9 µmol/L
  Creatinine Mean percentage CFB: 5.7%
[24]
  Creatinine Mean CFB: 0.0 µmol/L
  Creatinine Mean percentage CFB: 0.0%
[25]
  Creatinine Mean CFB: 4.6 µmol/L
  Creatinine Mean percentage CFB: 8.2%
[26]
  Creatinine Mean CFB: 4.1 µmol/L
  Creatinine Mean percentage CFB: 7.9%
[27]
  Creatinine Mean CFB: 4.3 µmol/L
  Creatinine Mean percentage CFB: 8.3%
[28]
  Creatinine Mean CFB: 6.6 µmol/L
  Creatinine Mean percentage CFB: 12.1%
[29]
  Creatinine Mean CFB: 6.3 µmol/L
  Creatinine Mean percentage CFB: 11.6%
[30]
  Creatinine Mean CFB: 6.5 µmol/L
  Creatinine Mean percentage CFB: 12.1%
[31]
  Creatinine Mean CFB: 7.0 µmol/L
  Creatinine Mean percentage CFB: 12.7%
[32]
  Creatinine Mean CFB: 6.1 µmol/L
  Creatinine Mean percentage CFB: 11.5%
[33]
  Creatinine Mean CFB: 0.0 µmol/L
  Creatinine Mean percentage CFB: 0.0%
[34]
  Creatinine Mean CFB: 2.3 µmol/L
  Creatinine Mean percentage CFB: 4.2%
[35]
  Creatinine Mean CFB: 2.5 µmol/L
  Creatinine Mean percentage CFB: 4.9%
Continued 100 mg q.d. (N = 85), week 4
  Creatinine Mean CFB: 2.0 µmol/L
